According to paper PMC8639918, “Mechanism of phosphate sensing and signaling revealed by rice SPX1-PHR2 complex structure” (Nature Communications, 2021):
For at least one entry, the source does not settle the construct or the ends of the probe. For some assays here: No signal at the amounts used counts as a negative.

Protein sequences, listed by entry. Tags and fused reporters are not part of them. Residues count along the entry.
UniProt Q6Z156, 230-426: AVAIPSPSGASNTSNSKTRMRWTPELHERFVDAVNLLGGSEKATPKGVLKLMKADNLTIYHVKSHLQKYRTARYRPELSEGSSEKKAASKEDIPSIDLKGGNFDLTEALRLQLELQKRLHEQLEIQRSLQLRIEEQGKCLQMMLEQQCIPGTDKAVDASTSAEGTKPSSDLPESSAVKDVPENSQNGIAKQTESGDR
UniProt Q6Z156, 230-426 L348A/L358A/I362A: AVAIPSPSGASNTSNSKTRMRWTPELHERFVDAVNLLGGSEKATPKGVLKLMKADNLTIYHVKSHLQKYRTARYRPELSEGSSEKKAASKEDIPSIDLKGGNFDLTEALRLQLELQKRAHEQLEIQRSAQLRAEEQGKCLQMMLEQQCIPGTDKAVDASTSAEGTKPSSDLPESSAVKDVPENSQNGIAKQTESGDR

Key:
Test in all cases: ITC
[1] = molecular target: PHR2 230-426 (Oryza sativa (rice)) (UniProt Q6Z156); details: buffer E (200 mM PBS pH 7.4), 70 uM P1BS injected into 10 uM protein, recombinant protein, residues 230-426, protein details: N-terminal 10xHis-MsyB, TEV-cleaved
[2] = molecular target: PHR2 230-426 3M L348A,L358A,I362A (Oryza sativa (rice)) (UniProt Q6Z156); details: 25 C, buffer E (200 mM PBS pH 7.4), 70 uM P1BS injected into 10 uM protein, recombinant protein, residues 230-426, protein details: N-terminal 10xHis-MsyB, TEV-cleaved
[3] = tested on: PHR2 230-426 + SPX1 1-259; details: buffer E (200 mM PBS pH 7.4), 70 uM P1BS injected into 10 uM protein, recombinant protein

In the case of CGCGAATATTCCCA (double strand) [P1BS], the Kd ([1]; 25 C) is reported as 256 nM, the Kd ([1]; InsP6, 25 C) is reported as 232 nM and the Kd [2] is reported as 1800 nM. For the same sequence, the binding result ([3]; SPX1 1-259 + InsP6, binding completely abolished, 25 C) was “no binding” and the Kd ([3]; SPX1 1-259 present, no InsP6, 25 C) was 381 nM.
